The results in this text go back to paper PMC8355874.

Protein sequences, listed by entry. Tags and fused reporters are not part of them.
UniProt P67809: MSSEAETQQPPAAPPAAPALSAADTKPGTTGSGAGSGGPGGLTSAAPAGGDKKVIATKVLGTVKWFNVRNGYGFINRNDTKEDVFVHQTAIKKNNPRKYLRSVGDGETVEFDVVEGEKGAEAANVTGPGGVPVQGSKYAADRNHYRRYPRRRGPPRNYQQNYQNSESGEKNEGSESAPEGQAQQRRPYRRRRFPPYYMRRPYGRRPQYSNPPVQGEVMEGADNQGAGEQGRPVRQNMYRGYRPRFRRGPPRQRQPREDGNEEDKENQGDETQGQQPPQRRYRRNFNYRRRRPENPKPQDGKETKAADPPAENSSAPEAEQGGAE

The assay deals with T1, Vitamin D receptor (VDR), expressed in human cells (not stated (human or mouse cDNA cloned)) (UniProt P11473).
T1 sequence: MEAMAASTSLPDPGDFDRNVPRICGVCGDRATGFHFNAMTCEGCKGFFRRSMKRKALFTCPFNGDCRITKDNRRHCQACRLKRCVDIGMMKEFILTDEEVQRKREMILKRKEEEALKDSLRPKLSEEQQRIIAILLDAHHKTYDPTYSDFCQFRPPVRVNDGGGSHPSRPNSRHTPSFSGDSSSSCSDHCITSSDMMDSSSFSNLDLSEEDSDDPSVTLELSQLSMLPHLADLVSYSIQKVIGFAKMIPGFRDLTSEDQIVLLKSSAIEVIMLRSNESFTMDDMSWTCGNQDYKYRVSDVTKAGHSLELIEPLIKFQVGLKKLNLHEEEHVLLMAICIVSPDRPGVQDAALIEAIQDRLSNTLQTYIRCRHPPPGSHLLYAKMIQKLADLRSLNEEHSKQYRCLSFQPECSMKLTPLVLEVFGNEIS
As to the kind of experiment: co-IP; human cells (HOK and NCM460 cell lines) co-transfected with plasmids; lysate supernatants incubated with HA or Flag antibodies and protein A/G beads for four hours; SDS-PAGE and western blot. (In general: Immunoblotting shows a protein as a band on a membrane.)

Results are given in words; binding and its absence hold for the method and conditions named. In cells and extracts the contact can be indirect. Some results given as binding are weak or reduced against the parent protein; the word gives no strength.

As for “Y box-binding protein 1 (YBX-1), expressed in human cells (from UniProt P67809 1-324)”, the binding result was “binds”.
